# Assay results as given in PubChem BioAssay AID1487 (National Center for Advancing Translational Sciences (NCATS), 2009).
# “And” between values parts separate entries of the source, which are not always exact repeats. Identical values can stand only once. The list shows a part of the results. Shown are side measurements of this screen, not its main read-out; they come without a call. Most of these compounds were active or inconclusive in the main read-out, so they are no random draw. The note in brackets gives the kind of curve behind each potency; many fits are weak.
# Assay: qHTS Assay for Modulators of Lamin A Splicing
# Settings: HeLa LMNA splicing GFP/RFP minigene ratio, 48 h
# Procedure, shortened: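 S3 HeLa cells stably expressing lamin A-EGFP splicing minigene plus DsRed2, 600 cells/well, 48 h compound exposure at 37C. Laser-scanning cytometry; analysed as GFP (500-530 nm)/RFP (575-640 nm) total intensity ratio; 0.5% DMSO vehicle.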
# [1] = measured here: RFP viability control channel
# [2] = measured here: GFP splicing reporter channel
Compound,AC50 [1],AC50 [2]
COC(=O)C(N)CCCN=C(N)N[N+](=O)[O-] (configuration not stated),"0.000891 µM [falling, full curve, poor fit]",
CC(C)C[C@H]1C(=O)N2CCCC2[C@]2(O)O[C@](NC(=O)[C@@H]3C=C4c5cccc6[nH]c(Br)c(c56)C[C@H]4N(C)C3)(C(C)C)C(=O)N12 (some centres not stated),"5.01 µM [rising, full curve, poor fit] and 15.8 µM [falling, single point]","17.8 µM [falling, partial curve]"
CCn1c(O)c(C=Nc2ccc(N3CCOCC3)cc2)c(=O)n(CC)c1=S,"35.5 µM [falling, single point]","35.5 µM [falling, single point]"
O=C1NC(=O)C(CCc2ccncc2)(CCc2ccncc2)C(=O)N1Cc1ccccc1,,"0.00282 µM [falling, full curve, poor fit]"
NCCCC[C@H](N[C@@H](CCc1ccccc1)C(=O)O)C(=O)N1CCC[C@H]1C(=O)O,"0.001 µM [falling, full curve, poor fit]","3.55 µM [falling, partial curve, poor fit]"
N#CCCn1cc(C(=O)Nc2ccc([N+](=O)[O-])cc2)c(-c2ccc3c(c2)OCCO3)n1,"2.24 µM [falling, partial curve, poor fit]",
C=CCN(CC=C)Cc1c[nH]c2ccccc12,"22.4 µM [rising, single point]","25.1 µM [rising, single point]"
Cc1cc(N2CCCC2)ccc1C=C(C#N)C#N,"35.5 µM [falling, single point]",
O=c1[nH]c(=O)n(CCC2=CCCCC2)c(O)c1C=NC1CCN(Cc2ccccc2)CC1,"15.8 µM [rising, partial curve, poor fit]",
Oc1ccccc1O,"11.2 µM [falling, partial curve]","11.2 µM [falling, partial curve]"
Cc1ccc2c(c1)cc(C(=O)Nc1ccccc1C)n2C,"10 µM [rising, partial curve]",
CC1(C)CC(=O)c2cc(OCC(=O)N3CCN(Cc4ccccc4)CC3)ccc2O1,,"14.1 µM [falling, single point]"
CC(C)=O,"0.1 µM [falling, single point]","0.00501 µM [falling, full curve, poor fit]"
O=C(N/N=C/c1c(O)n(CCC2=CCCCC2)c(=S)[nH]c1=O)c1ccccc1,"35.5 µM [rising, single point]",
CCCc1nc2ccc(Br)cc2c(=O)n1-c1ccc([N+](=O)[O-])c(C(F)(F)F)c1,"31.6 µM [rising, single point]",
Clc1ccc([C@@H](OCCN2CCCCC2)c2ccccc2)cc1,,"0.000398 µM [falling, full curve, poor fit]"
CN1/C(=C\C=C2C(=O)NC(=S)NC2=O)C(C)(C)c2ccccc21,"35.5 µM [rising, single point]",
CC1CCC[C@H](O)CCCCCc2cc(O)cc(O)c2C(=O)O1 (some centres not stated),"31.6 µM [rising, single point]","3.98 µM [falling, partial curve]"

Compound,AC50 [1],AC50 [2]
O=C(Nc1ccncc1)c1cccn(Cc2ccccc2)c1=O,,"10 µM [falling, partial curve, poor fit]"
COc1ccc(Cc2nccc3cc(OC)c(OC)cc23)cc1OC,"2 µM [falling, full curve] and 2 µM [rising, full curve]","2 µM [falling, full curve] and 7.08 µM [falling, partial curve]"
O=C(NCCCN1CCOCC1)C(Cl)(Cl)Cl,"1.58 µM [rising, partial curve]","5.62 µM [rising, full curve, poor fit]"
NCCCP(=O)(O)O,"0.00501 µM [falling, full curve, poor fit]",
CCOP(=S)(NN(Cc1ccccc1)C(=O)c1ccccc1)OCC,"1.26 µM [falling, partial curve, poor fit]",
CNCCc1c[nH]c2ccc(O)cc12,,"0.2 µM [rising, full curve, poor fit]"
O=c1c2ccccc2nc(C[n+]2ccccc2)n1-c1cccc(C(F)(F)F)c1,"1.26 µM [falling, full curve, poor fit]","12.6 µM [falling, partial curve, poor fit]"
Cc1ccc(CNc2cc(C)nc3nc(-c4ccc(C)cc4)nn23)cc1,"22.4 µM [rising, single point]",
CCN1/C(=C\C=C\C2=[N+](CC)c3ccccc3C2(C)C)C(C)(C)c2ccccc21,"0.1 µM [rising, full curve, poor fit]",
CC(COc1ccccc1)N(CCCl)Cc1ccccc1 (configuration not stated),"0.00501 µM [falling, full curve, poor fit]",
COc1ccccc1CCNC1CCC(C(C)(C)C)CC1 (configuration not stated),"20 µM [rising, single point]","12.6 µM [rising, single point]"
COc1ccc(-n2c(SC)nc3ccccc3c2=O)cc1,"35.5 µM [rising, single point]",
COc1cc(C(=O)N/N=C/c2ccc(OC(=O)N3CCOCC3)cc2)cc(OC)c1OC,"35.5 µM [rising, single point]","6.31 µM [rising, partial curve, poor fit]"
N#CC(C#N)=Cc1cccnc1,,"0.0224 µM [falling, full curve, poor fit]"
COc1cc(Cn2c(=O)oc3ccc(C)cc32)ccc1OC(C)C,"35.5 µM [rising, single point]",
CCC[N+]12CCC(CC1)C(=C(c1ccccc1)c1ccccc1)C2,"7.94 µM [rising, partial curve, poor fit]",
Cc1[nH]c2ccc(OC(=O)N3CCOCC3)cc2c1C(=O)OC(C)C,"11.2 µM [rising, partial curve]",
